Hit rate of the full screen: of about 1,000 compounds, fewer than 10 were called active.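 The calls were made as follows: active = fitted half-maximal concentration no higher than twice the top valid tested dose, with signal falling; inconclusive = flat curve with 30 to 70% inhibition, or poor fit; inactive = the rest.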 This is one part of the list. Results with a measured potency or affinity are listed apart.
molecular target: Golgi-associated PDZ and coiled-coil motif-containing protein (Homo sapiens) (UniProt Q9HD26); experiment: blockers of CAL PDZ–TMR peptide complex – biochemical, fluorescence polarization, untagged CAL PDZ, cherry-pick, set 2, dose response (AID 602254); conditions: Purified CAL PDZ; at 60 µM (top of the series);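 also: 0% = DMSO neutral control and -100% = unlabeled peptide PRC23 positive control; more negative means stronger blocking of peptide binding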

Activity change, negative = inhibition, inactive:
Cc1noc(C)c1COc1cccc(C(=O)OC(C)C#N)c1 (centres undefined) -4%
CCOc1cc(N2CCOCC2)c(OCC)cc1NC(=O)CN1CCCC1 0.854%
Cc1cccc(C(=O)NCC(=O)OCC(=O)c2cc(C)n(CC3CCCO3)c2C)c1 (centres undefined) 0.553%
CN(c1ccc(OCC(=O)NC2=NCCS2)cc1)S(=O)(=O)c1ccc(F)cc1 -0.611%
NC(=S)NNc1cc(Cl)cc(Cl)c1 0.645%
O=C(c1ccc(S(=O)(=O)N2CCOCC2)cc1)N1CCN(c2ccc(F)cc2)CC1 -0.073%
N#CCCN(Cc1cccnc1)C(=S)NC(=O)c1ccccc1 -3.08%
CCOCCc1nnc(NC(=O)CCC2CCCCC2)s1 -4.13%
CN(CC1COc2ccccc2O1)C(=O)c1cc(COc2c(F)cccc2F)on1 (centres undefined) 0.514%
c1cc2c(cc1Cn1cnnn1)OCO2 0.28%
c1cnn(Cc2cnc(N3CCOCC3)s2)c1 -1.61%
Cc1ccc(C(=O)NN2C(=O)c3ccc(S(=O)(=O)c4ccc(C(=O)O)cc4)cc3C2=O)cc1 -1.61%
O=C(COC(=O)c1cc(S(=O)(=O)N2CCOCC2)ccc1Cl)Nc1ccc2c(c1)OCO2 -0.354%
O=C(O)c1cccc(Cn2c(Cl)c(/C=N/NC(=O)c3cc4ccccc4cc3O)sc2=O)c1 22.6%
CCn1nc(C)c(CN2CCC(Oc3ccc(C(=O)N4CCCC4)cc3)CC2)c1C -0.055%
COc1cc(C(=O)OCC(=O)N2CCCCC2C)ccc1OCc1c(C)noc1C (centres undefined) -0.001%
Cc1cccc(CC(=O)NCC(=O)NCc2cc(=O)n(C)c(=O)n2C)c1 0.11%
CC(=O)N1CCN(C(=O)C2(NC(=O)Nc3ccc(C)cc3)CCCCC2)CC1 0.455%
CN(CCOc1ccccc1)C(=O)c1ccc2c(c1)OCO2 2.4%
O=C(CNC(=O)c1ccccc1)OCC(=O)c1ccccc1Cl -0.018%
CCc1ccc(CNC(=O)C2CCCN(c3nnc(C)c4c(C)n(-c5ccccc5)nc34)C2)cc1 (centres undefined) 3.14%
CCOc1cc(N2CCOCC2)c(OCC)cc1NC(=O)c1cc(C)cc(C)c1 -0.962%
Cc1nn(-c2ccccc2)c2nc(C(Cl)(Cl)Cl)[nH]c(=O)c12 4.48%
COc1cccc(CNS(=O)(=O)c2ccc3c(c2)CC(C)N3C(=O)C2CC2)c1 (centres undefined) -0.409%
COc1cc(OCC(=O)NC(C)C)cc2c1C(=O)O[C@@H](C)CCCC(=O)CCCCC2 -1.29%
COc1ccc(S(=O)(=O)Nc2nccs2)cc1OC 1.39%
COc1ccc(S(=O)(=O)NCCc2ccccc2)cc1 0.714%
O=C(Nc1c(F)cc(F)cc1Br)c1cc(-c2ccccc2)on1 -5.52%
Cc1ccc(NC(=S)N(CCCN2CCCC2)Cc2cccn2Cc2ccc(Cl)cc2)cc1C 7.5%
O=C(NCc1ccccc1)c1cc2ccccc2oc1=O -0.916%
O=C(N/N=C/c1cccnc1)c1cccc(F)c1 3.21%
CN(C)CCNc1nc(S(=O)(=O)c2ccccc2)c(Cl)s1 -0.085%
O=C(Nc1cccc(O)c1)c1ccc(NC(=O)C2CCCO2)cc1 (centres undefined) 0.422%
O=C(Nc1cccc(Cl)c1)N1CCN(C/C=C/c2ccccc2)CC1 -0.337%
Cc1ccccc1N1CCN(C2CCCN(C(=O)c3csc(C(C)C)n3)C2)CC1 (centres undefined) -4.66%
CCN1CCN(c2ncc3c(n2)CC(c2cc(OC)c(OC)c(OC)c2)CC3=O)CC1 (centres undefined) 0.893%
CC1CN(C(=O)COC(=O)c2cccc(S(=O)(=O)N3CCc4ccccc43)c2)CC(C)O1 (centres undefined) -0.677%
Cc1cccc(/C(N)=N/OC(=O)c2cccs2)c1 1.54%
O=C(O)C1CC=CCC1C(=O)NCCCCc1ccccc1 (centres undefined) -2.28%
CCCn1nnnc1NCc1cccc(Cl)c1 1.6%
CS(=O)(=O)N1CCc2cc(C(=O)OCC(=O)c3ccccc3)ccc21 2.93%
c1ccc(-c2cnc(CSc3nnc4ccccn34)o2)cc1 0.061%
NC(=NCCc1ccc(Cl)cc1)NS(=O)(=O)c1ccc(F)cc1 1.07%
CC(=O)Nc1ccc(-c2cc(NC(C)=O)n(-c3ccccc3)n2)cc1 -0.873%
CN(CC(=O)NCC(=O)Nc1ccc(F)cc1)CC(=O)Nc1ccc(Cl)c(C(F)(F)F)c1 0.432%
CCCN(CC(=O)Nc1ccccc1C)C(=O)CCCc1c[nH]c2ccccc12 -2.12%
CCN1CCN(S(=O)(=O)c2ccc(Cl)c(C(=O)Oc3ccc(CC(=O)OC)cc3)c2)CC1 -0.496%
CCOC(=O)c1cccc(NC(=O)c2ccc(NC(=O)C3CCCO3)cc2)c1 (centres undefined) 1.35%
COC(=O)c1sccc1NC(=O)c1cccc(Cl)c1 -1.67%
CC(C)Oc1cccc(C(=O)C2CCCN(C(=O)CCn3cnnn3)C2)c1 (centres undefined) 0.618%
CCOc1ccc(CN2CCN(Cc3cccn3-c3cccnc3)CC2CCO)cc1 (centres undefined) -5.42%
Cc1ccc(NC(=S)Nc2ccc(OC(F)F)c(Cl)c2)cc1F -3.18%
O=C1CN(C(=O)COc2ccc(F)cc2Br)c2ccccc2N1 -1.17%
Cc1cccc(C)c1OCC(=O)N(Cc1ccc(N(C)C)cc1)C1CCS(=O)(=O)C1 (centres undefined) 3.25%
Clc1cccc2c1CCN(Cc1nc(-c3cnccn3)no1)C2 2.75%
CC(C)(C)N(Cc1nc(-c2ccccc2)no1)C(=O)c1ccc2c(c1)OCO2 0.223%
CC(C)c1ccc(NC2CCCN(C(=O)c3ccnn3C)C2)cc1 (centres undefined) -3.14%
O=C(Nc1ccccc1Cl)N1CCN(c2ccc3nnc(-c4ccccc4)n3n2)CC1 9.02%
CC(=O)Nc1ccc(NCC(=O)c2ccccc2)cc1 5.34%
CCSC1=N/C(=C\c2ccccc2)C(=O)N1 -6.79%
CCSc1nnc(NC(=O)CN2C(=O)NC3(CCCC3)C2=O)s1 -1.53%
COCC(C)N1CCC(Oc2cccc(C(=O)NCCc3ccccc3)c2)CC1 (centres undefined) -1.25%
CCCCN1CC(COc2ccccc2)Oc2cccc(F)c2S1(=O)=O (centres undefined) 2.86%
COC(=O)[C@H](CC(C)C)NC(=O)NCCC1=CCCCC1 -1.98%
CC(=O)c1cccc(CN2CCN(CC=C(C)C)C(CCO)C2)c1 (centres undefined) -0.044%
CCCCN1CC(CO)Oc2cccc(F)c2S1(=O)=O (centres undefined) 0.284%
CC(C)n1ncc2c(C(=O)NCC(=O)Nc3ccccc3Br)cc(C3CC3)nc21 6.18%
CC(=O)N(c1ccc(C)cc1)S(=O)(=O)c1ccc(Cl)cc1 -3.42%
Cc1sc(NC(=O)CN2CCCC2)nc1-c1ccc2c(c1)CCN2C(=O)c1cccc(F)c1 2.42%
O=C(CNC(=O)c1ccccc1F)OCC(=O)c1c[nH]c2ccccc12 2.21%
O=C(Nc1cnccn1)Nc1ccccc1F 2.15%
CCOC(=O)c1sc(NC(=O)Nc2ccc(Cl)cc2)nc1C 0.778%
CCCCCCC(=O)Nc1ccc(Br)cn1 0.397%
c1ccc(-c2ccccc2OCCOCCN2CCc3ccccc3C2)cc1 -1.05%
CC(C)(C)n1ncc2c(=O)n(Cc3ccc(Cl)c(Cl)c3)cnc21 -3.02%
Cc1c(NC2(C#N)CCCC2)c(=O)n(-c2ccccc2)n1C 1.49%
O=C(COC(=O)c1cnccn1)Nc1ncc(C(F)(F)F)cc1Cl -0.286%
COc1ccc(C2C(C(=O)N3CCOCC3)CCC(=O)N2c2ccc(OC)cc2)cc1 (centres undefined) -0.127%
O=C(Cn1cnc(S(=O)(=O)N2CCCC2)c1)Nc1cccc(Br)c1 1.8%
Nc1ccc(Nc2nc(-c3cc4ccccc4oc3=O)cs2)cc1 -1.41%
COc1ccccc1-c1ccc(SCc2ccc(F)cc2)nn1 -3.29%
CCCCOc1ccc(NC(=O)Nc2nnc(C)s2)cc1 -7.21%
COc1ccc(NC(C)=O)cc1NC(C)c1nc2sc(C)c(C)c2c(=O)[nH]1 (centres undefined) -1.45%
Cc1cc(C(=O)NCC2COc3ccccc3O2)c2ccccc2n1 (centres undefined) -4.37%
CCN(CC)c1ccc(NC(=O)C2CC(=O)N(Cc3ccccc3)C2)cc1 (centres undefined) 0.173%
O=C(COC(=O)c1cccc(-n2cnnn2)c1)Nc1c(Cl)cccc1C(F)(F)F 0.704%
O=C(N/N=C/c1ccc(OCc2ccccc2)cc1)c1ccc(O)cc1 1.59%
CC(NC(=O)COc1ccccc1)C(=O)N1CCN(c2ccc(F)cc2)CC1 (centres undefined) -1.4%
CCn1c(/C=C/c2ccccc2C)nc2ccccc2c1=O 1.73%
CN1CCN(C(=O)CC2C(=O)NCCN2Cc2ccc(-c3ccccc3)cc2)CC1 (centres undefined) -0.985%
Cc1cccc(NC(=O)CN2C(=O)N/C(=C/c3cc(C)n(-c4cccnc4)c3C)C2=O)c1 1.04%
Cn1c(=O)c2[nH]c(CCc3ccncc3)nc2n(C)c1=O 0.975%
CCN(CC(=O)NCc1cccs1)C(=O)c1ccccc1Cl -2.3%
Cc1ccc(S(=O)(=O)N(C)c2ccc(OC(=O)c3cccs3)cc2)cc1C 0.715%

Six entries out of the list, sorted by number of heavy atoms, largest number first:
Activity change, negative = inhibition, inactive:
CCn1nc(C)c(CN2CCC(Oc3ccc(C(=O)N4CCCC4)cc3)CC2)c1C -0.055%
O=C(COC(=O)c1cccc(-n2cnnn2)c1)Nc1c(Cl)cccc1C(F)(F)F 0.704%
COc1cccc(CNS(=O)(=O)c2ccc3c(c2)CC(C)N3C(=O)C2CC2)c1 (centres undefined) -0.409%
CC(C)Oc1cccc(C(=O)C2CCCN(C(=O)CCn3cnnn3)C2)c1 (centres undefined) 0.618%
COC(=O)[C@H](CC(C)C)NC(=O)NCCC1=CCCCC1 -1.98%
CCSC1=N/C(=C\c2ccccc2)C(=O)N1 -6.79%

Reference: PubChem BioAssay AID602254 (Broad Institute, 2012)
